Assay results from patent US20120108492A1, “LIGAND-SPECIFIC NON-ANTIBODY COMPOUNDS THAT INHIBIT CR2 ACTIVATION AND METHODS OF USE THEREOF” (The Regents of the University of Colorado, priority 2008, published 2012).
Some of these results come from one statement about several compounds together.

B1: L10A: single-site mutant of recombinant MBP-CR2 SCR1-2 (protein)
chain: ISCGSPPPIANGRISYYSTPIAVGTVIRYSCSGTFRLIGEKSLLCITKDKVDGTWDKPAPKCEYFNKYSSCPEPIVPGGYKIRGSTPYRHGDSVTFACKTNFSMNGNKSVWCQANNMWGPTRLPTCVSVFPLE
modifications: left off: large carriers; small tags and cut ends
B2: N11A: single-site mutant of recombinant MBP-CR2 SCR1-2 (protein)
chain: ISCGSPPPILAGRISYYSTPIAVGTVIRYSCSGTFRLIGEKSLLCITKDKVDGTWDKPAPKCEYFNKYSSCPEPIVPGGYKIRGSTPYRHGDSVTFACKTNFSMNGNKSVWCQANNMWGPTRLPTCVSVFPLE
modifications: left off: large carriers; small tags and cut ends
B3: Y16A: single-site mutant of recombinant MBP-CR2 SCR1-2 (protein)
chain: ISCGSPPPILNGRISAYSTPIAVGTVIRYSCSGTFRLIGEKSLLCITKDKVDGTWDKPAPKCEYFNKYSSCPEPIVPGGYKIRGSTPYRHGDSVTFACKTNFSMNGNKSVWCQANNMWGPTRLPTCVSVFPLE
modifications: left off: large carriers; small tags and cut ends
B4: S32A: single-site mutant of recombinant MBP-CR2 SCR1-2 (protein)
chain: ISCGSPPPILNGRISYYSTPIAVGTVIRYSCAGTFRLIGEKSLLCITKDKVDGTWDKPAPKCEYFNKYSSCPEPIVPGGYKIRGSTPYRHGDSVTFACKTNFSMNGNKSVWCQANNMWGPTRLPTCVSVFPLE
modifications: left off: large carriers; small tags and cut ends
B5: T34A: single-site mutant of recombinant MBP-CR2 SCR1-2 (protein)
chain: ISCGSPPPILNGRISYYSTPIAVGTVIRYSCSGAFRLIGEKSLLCITKDKVDGTWDKPAPKCEYFNKYSSCPEPIVPGGYKIRGSTPYRHGDSVTFACKTNFSMNGNKSVWCQANNMWGPTRLPTCVSVFPLE
modifications: left off: large carriers; small tags and cut ends
B6: Y64A: single-site mutant of recombinant MBP-CR2 SCR1-2 (protein)
chain: ISCGSPPPILNGRISYYSTPIAVGTVIRYSCSGTFRLIGEKSLLCITKDKVDGTWDKPAPKCEAFNKYSSCPEPIVPGGYKIRGSTPYRHGDSVTFACKTNFSMNGNKSVWCQANNMWGPTRLPTCVSVFPLE
modifications: left off: large carriers; small tags and cut ends
B7: Y68A: single-site mutant of recombinant MBP-CR2 SCR1-2 (protein)
chain: ISCGSPPPILNGRISYYSTPIAVGTVIRYSCSGTFRLIGEKSLLCITKDKVDGTWDKPAPKCEYFNKASSCPEPIVPGGYKIRGSTPYRHGDSVTFACKTNFSMNGNKSVWCQANNMWGPTRLPTCVSVFPLE
modifications: left off: large carriers; small tags and cut ends
B8: T86A: single-site mutant of recombinant MBP-CR2 SCR1-2 (protein)
chain: ISCGSPPPILNGRISYYSTPIAVGTVIRYSCSGTFRLIGEKSLLCITKDKVDGTWDKPAPKCEYFNKYSSCPEPIVPGGYKIRGSAPYRHGDSVTFACKTNFSMNGNKSVWCQANNMWGPTRLPTCVSVFPLE
modifications: left off: large carriers; small tags and cut ends
B9: M117A: single-site mutant of recombinant MBP-CR2 SCR1-2 (protein)
chain: ISCGSPPPILNGRISYYSTPIAVGTVIRYSCSGTFRLIGEKSLLCITKDKVDGTWDKPAPKCEYFNKYSSCPEPIVPGGYKIRGSTPYRHGDSVTFACKTNFSMNGNKSVWCQANNAWGPTRLPTCVSVFPLE
modifications: left off: large carriers; small tags and cut ends

molecular target: EBV gp350 (Epstein-Barr virus, UniProt P03200); assay: MBP-CR2 SCR1-2 mutant-EBV gp350 ELISA; assay type: binding; parameters: DNA corresponding to residues 1-470 of EBV gp350/220; E. coli biotin carboxyl carrier protein (BCCP) fragment, residues 70-156; hexa-histidine (C); made in house; host or cells: human embryonic kidney 293f freestyle cells (pSecTag2/Hygro B); details: reduction relative to wild-type MBP-CR2 SCR1-2
Description: See Martin et al. (1991) J Exp Med 174:1299-311; Young et al. (2007) J Biol Chem 282:36614-36625; Guthridge et al. (2001) Biochemistry 40:5931-41; and Sarrias et al. (2001) J Immunol 167:1490-9. […] Young et al. (2007) J Biol Chem 282:36614-36625.
After coating, the plates were blocked using 0.1% BSA in a PBS solution, pH 7.4 for one hour at room temperature. The plates were then washed, and incubated with either wild-type or mutant MBP-CR2 SCR1-2, at concentrations ranging from 0.03125-2.0 μg/ml in PBS for one hour at room temperature. After further washing, wild-type or mutant MBP-CR2 binding was detected using commercially available horseradish peroxidase-conjugated anti-MBP mAb (New England Biolabs) according to the manufacturer's instructions.

Molecule	decrease in EBV gp350 binding [%]
B1	< 20
B2	< 20
B3	< 20
B4	< 20
B5	< 20
B6	< 20
B7	< 20
B8	< 20
B9	< 20
